Measured data: PubChem BioAssay AID1259308 (NCATS, 2017)
Shown is a random part of about 59,000 deposited reagents. About 1,510 of all reagents (2.6%) were called active. 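Calls use total luciferase alone and ignore viability, so some active siRNAs may act by altering cell number.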 A number with no mark means an inactive call. Reagent sequences are not shown.

Assay: 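Knock-downs that increase output of a recombinant reporter protein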 (primary screen)
Cells: human HEK293 embryonic kidney cells stably expressing firefly luciferase (HEK-CMV-Luc2-Hygro)
Reagents: single siRNA against human genes, 0.8 pmol siRNA per well
Time to read-out: 72 h
Measurement: 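Reporter luminescence and viable-cell signal on separate replicate plates, given as percent of non-targeting control and median/MAD z-scores, plus per-cell luciferase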
Direction: total luciferase, z-score and total luciferase, % of control: higher = more reporter protein produced; luciferase per cell, z-score: higher = more reporter output per viable cell; viable cells, % of control: higher = more viable cells
Rule for the call: 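Active when the median/MAD z-score for overall luciferase is greater than 3; a gene was taken forward for validation with new siRNAs if at least two of its three siRNAs passed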
Meaning of the calls: active = raised luciferase; inactive = no rise

| gene knocked down | PubChem SID | total luciferase, z-score | total luciferase, % of control | luciferase per cell, z-score | viable cells, % of control |
| --- | --- | --- | --- | --- | --- |
| CAMTA1 (calmodulin binding transcription activator 1) | SID160735861 | 0.589 | 93.6 | 0.307 | 96.5 |
| CAMTA1 (calmodulin binding transcription activator 1) | SID160735863 | -0.125 | 79.4 | -1.1 | 119 |
| CAMTA1 (calmodulin binding transcription activator 1) | SID160735864 | -0.483 | 72.3 | -0.553 | 93.4 |
| WNK3 (WNK lysine deficient protein kinase 3) | SID160748331 | 0.0519 | 82.9 | 0.404 | 83.3 |
| WNK3 (WNK lysine deficient protein kinase 3) | SID160748332 | -0.409 | 73.7 | -0.443 | 92.6 |
| WNK3 (WNK lysine deficient protein kinase 3) | SID160748334 | -0.589 | 70.2 | -0.572 | 91.2 |
| SFPQ (splicing factor proline and glutamine rich) | SID160716586 | 5.09 (active) | 183 | 3.59 | 79.5 |
| SFPQ (splicing factor proline and glutamine rich) | SID160716587 | 2.44 | 130 | 2.12 | 83.4 |
| SFPQ (splicing factor proline and glutamine rich) | SID160731722 | 1.06 | 103 | 2.05 | 67.1 |
| MYL5 (myosin light chain 5) | SID160777688 | 0.818 | 98.2 | 1.35 | 76.8 |
| MYL5 (myosin light chain 5) | SID160777689 | -0.433 | 73.3 | -0.171 | 85.7 |
| MYL5 (myosin light chain 5) | SID160777690 | -0.548 | 71 | 0.505 | 69.4 |
| TONSL (tonsoku like, DNA repair protein) | SID160733460 | 0.212 | 86.1 | -0.848 | 120 |
| TONSL (tonsoku like, DNA repair protein) | SID160778036 | -2.08 | 40.4 | -0.638 | 53.4 |
| TONSL (tonsoku like, DNA repair protein) | SID160778038 | 1.85 | 119 | 1.98 | 78.6 |
| GPR4 (G protein-coupled receptor 4) | SID160773023 | -0.104 | 79.8 | 0.681 | 74.6 |
| GPR4 (G protein-coupled receptor 4) | SID160773032 | -0.292 | 76.1 | -0.677 | 102 |
| GPR4 (G protein-coupled receptor 4) | SID160773043 | 1.08 | 103 | 1.62 | 75.4 |
| RFX5 (regulatory factor X5) | SID160715853 | 0.513 | 92.1 | 0.681 | 86 |
| RFX5 (regulatory factor X5) | SID160715854 | 5 (active) | 181 | 3.18 | 87.8 |
| RFX5 (regulatory factor X5) | SID160715855 | -0.335 | 75.2 | 0.139 | 81 |
| ACP6 (acid phosphatase 6, lysophosphatidic) | SID160740319 | -0.725 | 67.5 | -0.479 | 85.5 |
| ACP6 (acid phosphatase 6, lysophosphatidic) | SID160740321 | -0.0145 | 81.6 | -0.314 | 99 |
| ACP6 (acid phosphatase 6, lysophosphatidic) | SID160740322 | -0.248 | 76.9 | -0.39 | 95.3 |
| HBZ (hemoglobin subunit zeta) | SID160723847 | 1.4 | 110 | 0.241 | 115 |
| HBZ (hemoglobin subunit zeta) | SID160723848 | -0.104 | 79.8 | -0.0547 | 90.5 |
| HBZ (hemoglobin subunit zeta) | SID160723849 | 2.16 | 125 | 1.89 | 84.9 |
| FGF18 (fibroblast growth factor 18) | SID160720881 | 0.899 | 99.8 | 0.047 | 110 |
| FGF18 (fibroblast growth factor 18) | SID160720882 | -1.16 | 58.8 | -0.261 | 70.4 |
| FGF18 (fibroblast growth factor 18) | SID160735153 | -1.04 | 61.2 | -1.78 | 109 |
| FAT2 (FAT atypical cadherin 2) | SID160764050 | -0.0628 | 80.6 | -0.235 | 95.9 |
| FAT2 (FAT atypical cadherin 2) | SID160764061 | -0.852 | 64.9 | -0.156 | 75.6 |
| FAT2 (FAT atypical cadherin 2) | SID160764072 | 0.115 | 84.2 | 0.178 | 89.8 |
| CDHR5 (cadherin related family member 5) | SID160731440 | 1.68 | 115 | 1.27 | 92.2 |
| CDHR5 (cadherin related family member 5) | SID160741487 | -2.7 | 28.2 | -1.9 | 51.9 |
| CDHR5 (cadherin related family member 5) | SID160741489 | -1.3 | 56 | -1.51 | 93.1 |
| SNAPC2 (small nuclear RNA activating complex polypeptide 2) | SID160717093 | 2.26 | 127 | 1.24 | 102 |
| SNAPC2 (small nuclear RNA activating complex polypeptide 2) | SID160724078 | 2.07 | 123 | 1.07 | 104 |
| SNAPC2 (small nuclear RNA activating complex polypeptide 2) | SID160724079 | 0.411 | 90.1 | -0.345 | 110 |
| SUSD2 (sushi domain containing 2) | SID160731552 | 3.7 (active) | 155 | 2.14 | 99 |
| SUSD2 (sushi domain containing 2) | SID160744948 | 1.61 | 114 | 1.58 | 84 |
| SUSD2 (sushi domain containing 2) | SID160744949 | -0.315 | 75.6 | -0.879 | 107 |
| ZNF782 (zinc finger protein 782) | SID160759653 | -0.296 | 76 | 0.621 | 72.1 |
| ZNF782 (zinc finger protein 782) | SID160759654 | 4.6 (active) | 173 | 2.54 | 99.2 |
| ZNF782 (zinc finger protein 782) | SID160759655 | 2.12 | 124 | 1.09 | 104 |
| C1orf146 (chromosome 1 open reading frame 146) | SID160765946 | 5.46 (active) | 191 | 3.56 | 83.3 |
| C1orf146 (chromosome 1 open reading frame 146) | SID160765947 | 2.84 | 138 | 2.43 | 81.5 |
| C1orf146 (chromosome 1 open reading frame 146) | SID160765948 | -1.4 | 54 | -0.707 | 72.6 |
| EAPP (E2F associated phosphoprotein) | SID160744485 | -0.296 | 76 | -0.798 | 105 |
| EAPP (E2F associated phosphoprotein) | SID160744486 | 0.238 | 86.6 | -0.0155 | 97.2 |
| EAPP (E2F associated phosphoprotein) | SID160744487 | -0.733 | 67.3 | -0.447 | 84.6 |
| NLRP14 (NLR family pyrin domain containing 14) | SID160764011 | -1.08 | 60.4 | -0.0788 | 68.9 |
| NLRP14 (NLR family pyrin domain containing 14) | SID160764012 | 0.185 | 85.6 | 0.323 | 87.8 |
| NLRP14 (NLR family pyrin domain containing 14) | SID160764013 | 0.196 | 85.8 | 0.24 | 90 |
| RPS8 (ribosomal protein S8) | SID160716167 | -2.44 | 33.4 | -2.64 | 74.8 |
| RPS8 (ribosomal protein S8) | SID160716168 | -1.57 | 50.6 | 1.08 | 42.5 |
| RPS8 (ribosomal protein S8) | SID160716169 | -2.3 | 36.2 | -2.24 | 72.9 |
| PYDC2 (pyrin domain containing 2) | SID160732580 | 1.04 | 103 | 0.457 | 102 |
| PYDC2 (pyrin domain containing 2) | SID160759214 | -0.458 | 72.8 | -0.58 | 94.8 |
| PYDC2 (pyrin domain containing 2) | SID160759215 | -1.23 | 57.4 | -1.31 | 90.5 |
| ZNF654 (zinc finger protein 654) | SID160743420 | 0.381 | 89.5 | 0.0759 | 98 |
| ZNF654 (zinc finger protein 654) | SID160743421 | 1.48 | 111 | 1.58 | 82.2 |
| ZNF654 (zinc finger protein 654) | SID160743422 | 0.0966 | 83.8 | 0.354 | 85.3 |
| PRRT3 (proline rich transmembrane protein 3) | SID160763594 | 0.845 | 98.7 | 1.37 | 77 |
| PRRT3 (proline rich transmembrane protein 3) | SID160763595 | -0.804 | 65.9 | -1.58 | 112 |
| PRRT3 (proline rich transmembrane protein 3) | SID160763596 | 0.62 | 94.2 | 0.0448 | 104 |
| LINC01235 (long independently transcribed non-coding RNA 1235) | SID160767299 | -2.45 | 33.1 | -0.787 | 45.6 |
| LINC01235 (long independently transcribed non-coding RNA 1235) | SID160767300 | 0.0924 | 83.7 | 0.906 | 73.7 |
| LINC01235 (long independently transcribed non-coding RNA 1235) | SID160767301 | -0.949 | 63 | -0.36 | 77.4 |
| CHD1 (chromodomain helicase DNA binding protein 1) | SID160742480 | -0.753 | 66.9 | -1.24 | 104 |
| CHD1 (chromodomain helicase DNA binding protein 1) | SID160742491 | -1.26 | 56.8 | -1.96 | 106 |
| CHD1 (chromodomain helicase DNA binding protein 1) | SID160742501 | 0.0288 | 82.5 | -0.559 | 107 |
| CAMKK2 (calcium/calmodulin dependent protein kinase kinase 2) | SID160728950 | -0.112 | 79.7 | 0.497 | 78.1 |
| CAMKK2 (calcium/calmodulin dependent protein kinase kinase 2) | SID160728951 | 2.76 | 137 | 2.01 | 90.1 |
| CAMKK2 (calcium/calmodulin dependent protein kinase kinase 2) | SID160730462 | 2.15 | 125 | 1.42 | 96 |

Taken from above:
For “viable cells, % of control”, NLRP14 (NLR family pyrin domain containing 14) [SID160764013] reads 90
SFPQ (splicing factor proline and glutamine rich) [SID160731722], luciferase per cell, z-score → 2.05
SNAPC2 (small nuclear RNA activating complex polypeptide 2) [SID160724078], total luciferase, % of control → 123
Under “total luciferase, % of control”, ZNF654 (zinc finger protein 654) [SID160743421] is entered as 111
Result of TONSL (tonsoku like, DNA repair protein) [SID160733460] under “viable cells, % of control”: 120
Entry of RFX5 (regulatory factor X5) [SID160715855] under “viable cells, % of control”: 81
